Measurements: patent publication US9403894B2, “Glucagon analogues” (Zealand Pharma A/S, priority 2010, dated 2016)

Amino acid sequences for entries named in this document (tags omitted). Residues count along the entry.
UniProt P47871, 26-477: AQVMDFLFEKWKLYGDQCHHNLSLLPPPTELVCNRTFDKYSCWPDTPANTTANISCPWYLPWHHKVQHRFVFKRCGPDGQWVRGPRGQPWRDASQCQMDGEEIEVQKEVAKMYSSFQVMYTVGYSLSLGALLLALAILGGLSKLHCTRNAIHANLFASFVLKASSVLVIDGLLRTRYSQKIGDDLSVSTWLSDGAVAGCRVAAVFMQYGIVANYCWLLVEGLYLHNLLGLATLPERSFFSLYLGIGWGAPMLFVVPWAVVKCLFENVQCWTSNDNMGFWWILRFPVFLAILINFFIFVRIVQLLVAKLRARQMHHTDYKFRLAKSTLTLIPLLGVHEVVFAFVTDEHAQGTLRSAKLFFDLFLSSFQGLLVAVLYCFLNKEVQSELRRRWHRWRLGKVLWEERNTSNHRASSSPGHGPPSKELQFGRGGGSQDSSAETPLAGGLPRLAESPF

Biological target: T1, human Glucagon-R (Homo sapiens, UniProt P47871)
T1 construct: expressed in transfected cells
Experiment: Glucagon receptor efficacy assay (cAMP) in HEK293 cells expressing human Glucagon-R
Format: cell-based
Source text: The DNA encoding the Glucagon-R or the GLP-1-R was amplified by PCR using primers encoding terminal restriction sites for subcloning. The 5′-end primers additionally encoded a near Kozak consensus sequence to ensure efficient translation. The fidelity of the DNA encoding the Glucagon-R and the GLP-1-R was confirmed by DNA sequencing. The PCR products encoding the Glucagon-R or the GLP-1-R were subcloned into a mammalian expression vector containing a neomycin (G418) resistance marker. The mammalian expression vectors encoding the Glucagon-R or the GLP-1-R were transfected into HEK293 cells by a standard calcium phosphate transfection method. 48 hr after transfection cells were seeded for limited dilution cloning and selected with 1 mg/ml G418 in the culture medium. […] One Glucagon-R expressing clone and one GLP-1-R expressing clone were chosen for compound profiling.
On the day of analysis, growth medium was removed and the cells washed once with 200 μl Tyrode buffer. Cells were incubated in 100 μl Tyrode buffer containing increasing concentrations of test peptides, 100 μM IBMX, and 6 mM glucose for up 15 min at 37° C. The reaction was stopped by addition of 25 μl 0.5 M HCl and incubated on ice for 60 min.

Molecule CCCCCCCCCCCCCCCC(=O)N[C@@H](CCC(=O)NCCCC[C@H](NC(=O)[C@H](CCC(=O)O)NC(=O)[C@H](CC(=O)O)NC(=O)[C@H](CC(C)C)NC(=O)[C@H](Cc1ccc(O)cc1)NC(=O)[C@H](CCCCN)NC(=O)[C@H](CO)NC(=O)[C@H](Cc1ccc(O)cc1)NC(=O)[C@H](CC(=O)O)NC(=O)[C@H](CO)NC(=O)[C@@H](NC(=O)[C@H](Cc1ccccc1)NC(=O)[C@@H](NC(=O)CNC(=O)[C@H](CCC(N)=O)NC(=O)[C@H](CO)NC(=O)[C@@H](N)Cc1c[nH]cn1)[C@@H](C)O)[C@@H](C)O)C(=O)N[C@@H](CCCNC(=N)N)C(=O)N[C@@H](C)C(=O)N[C@@H](CCCCN)C(=O)N[C@@H](CC(=O)O)C(=O)N[C@@H](Cc1ccccc1)C(=O)N[C@H](C(=O)N[C@@H](CCC(=O)O)C(=O)N[C@@H](Cc1c[nH]c2ccccc12)C(=O)N[C@@H](CC(C)C)C(=O)N[C@@H](CC(C)C)C(=O)N[C@@H](CO)C(=O)N[C@@H](C)C(N)=O)[C@@H](C)CC)C(=O)O [Compound 6] has an EC50 of 160 pM.
